The other results are listed elsewhere or left out. These are further read-outs of the screen, such as a control signal, another cell line or another target. No call is given for them. Compounds called inactive in the main read-out are mostly missing here. Potencies come from curve fits of mixed quality, noted in brackets.
Experiment: qHTS Assay for Lipid Storage Modulators in Drosophila S3 Cells;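 for cell number change: cells counted by Cell Tracker Red CMTPX staining in the red channel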
Conditions: BODIPY lipid droplet fluorescence, 18-24 h; for cell number change: measured here: cell count max response, cells fed with added oleic acid
How it was run: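 Drosophila S3 cells got compounds at several concentrations plus oleic acid (400 uM solution). Laser-scanning cytometry with 488 nm excitation read lipid droplets at 500-530 nm and cells at 575-640 nm. Percent activity was relative to 20 uM Triacsin C.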

[1] = measured here: lipid fluorescence (Fed channel) AC50, cells fed with added oleic acid
[2] = measured here: cell number channel AC50, cells fed with added oleic acid

SMILES | AC50 [1] | cell number change | AC50 [2]
Cc1cc(C(=O)COc2cccnc2[N+](=O)[O-])c(C)n1-c1ccccc1 | 29.1 µM [rising, single point] | – | –
COC(=O)CCN(C)CCC(=O)OC | 29.1 µM [falling, single point] | – | –
CCOC(=O)c1ccc(NC(=S)N(CCCN2CCCCCC2)Cc2ccco2)cc1 | 14.6 µM [rising, single point] | 24.6% | –
CS(=O)(=O)c1ccc2nc(NC(=O)c3cc(-c4ccccc4)nn3-c3ccccc3)sc2c1 | – | 2.01% | 2.06 µM [rising, single point]
COc1ccc(C(=O)Nc2cccc(-c3nc4ncccc4o3)c2C)cc1 | 0.461 µM [rising, full curve, poor fit] | 25.5% | 0.116 µM [rising, full curve]
O=C(Nc1ccccc1)N1N=C(c2cccs2)CC1c1cccs1 (configuration not stated) | – | -36.6% | 29.1 µM [falling, single point]
CCNc1nc(Oc2c(Cl)cccc2Cl)cc(C(F)(F)F)n1 | 20.6 µM [falling, single point] | -2.3% | –
Cc1cc2cc(C(=O)N3CCc4c([nH]c5ccccc45)C3c3ccccn3)ccc2o1 (configuration not stated) | 6.51 µM [rising, single point] | 19.5% | –
O=C(COC(=O)CCN1C(=O)c2cccc([N+](=O)[O-])c2C1=O)NC1CCS(=O)(=O)C1 (configuration not stated) | – | 58.6% | –
O=C(NCc1ccccc1Cl)c1cc(=O)[nH]c2ccccc12 | – | 34.6% | –
CCN1CCN(C(=O)C2CCN(C(=O)Nc3ccccc3)CC2)CC1 | 0.731 µM [rising, single point] | -8.29% | –
O=C(N/N=C/c1ccc2c(c1)OCO2)c1ccc2c(c1)OCO2 | 7.08 µM [falling, full curve, poor fit] | – | –
CCOC(=O)c1cccc(NC(=O)c2ccc(NC(=O)c3ccco3)cc2)c1 | – | 8.65% | –
CCOC(=O)c1cncc(NC(=O)c2ccccc2)c1 | 14.6 µM [rising, partial curve] | 12.3% | –
COc1ccc(NC(=O)N/C=C/c2ccc(Cl)cc2)cc1 | 0.651 µM [rising, single point] | -7.36% | –
CCCCn1c(N)c(N(Cc2ccccc2OC)C(=O)c2ccc([N+](=O)[O-])s2)c(=O)[nH]c1=O | 8.2 µM [rising, partial curve, poor fit] | 36.6% | 6.51 µM [rising, partial curve]
CC(C(=O)N/N=C/c1ccc(N(C)C)c(Br)c1)N(c1ccccc1)S(C)(=O)=O (configuration not stated) | 6.51 µM [falling, partial curve, poor fit] | – | 0.00517 µM [falling, full curve, poor fit]
O=C(Nc1ccccc1)c1ccccc1OCc1ccc(F)cc1 | 16.4 µM [rising, single point] | 22.3% | –
O=C(NC1CC(=O)N(c2ccccc2)C1)N1CCN(C(=O)c2ccco2)CC1 (configuration not stated) | 13 µM [falling, partial curve] | -28.1% | –
CC(=O)c1cccc(NC(=O)C2CCCN(S(C)(=O)=O)C2)c1 (configuration not stated) | 3.66 µM [falling, full curve] | -23.3% | 2.91 µM [falling, full curve, poor fit]

For convenience, part of the list above.
SMILES | AC50 [1] | cell number change | AC50 [2]
Cc1cc2cc(C(=O)N3CCc4c([nH]c5ccccc45)C3c3ccccn3)ccc2o1 (configuration not stated) | 6.51 µM [rising, single point] | 19.5% | –
O=C(COC(=O)CCN1C(=O)c2cccc([N+](=O)[O-])c2C1=O)NC1CCS(=O)(=O)C1 (configuration not stated) | – | 58.6% | –
O=C(NCc1ccccc1Cl)c1cc(=O)[nH]c2ccccc12 | – | 34.6% | –
CCN1CCN(C(=O)C2CCN(C(=O)Nc3ccccc3)CC2)CC1 | 0.731 µM [rising, single point] | -8.29% | –
O=C(N/N=C/c1ccc2c(c1)OCO2)c1ccc2c(c1)OCO2 | 7.08 µM [falling, full curve, poor fit] | – | –
CCOC(=O)c1cccc(NC(=O)c2ccc(NC(=O)c3ccco3)cc2)c1 | – | 8.65% | –
CCOC(=O)c1cncc(NC(=O)c2ccccc2)c1 | 14.6 µM [rising, partial curve] | 12.3% | –
COc1ccc(NC(=O)N/C=C/c2ccc(Cl)cc2)cc1 | 0.651 µM [rising, single point] | -7.36% | –
CCCCn1c(N)c(N(Cc2ccccc2OC)C(=O)c2ccc([N+](=O)[O-])s2)c(=O)[nH]c1=O | 8.2 µM [rising, partial curve, poor fit] | 36.6% | 6.51 µM [rising, partial curve]
CC(C(=O)N/N=C/c1ccc(N(C)C)c(Br)c1)N(c1ccccc1)S(C)(=O)=O (configuration not stated) | 6.51 µM [falling, partial curve, poor fit] | – | 0.00517 µM [falling, full curve, poor fit]
O=C(Nc1ccccc1)c1ccccc1OCc1ccc(F)cc1 | 16.4 µM [rising, single point] | 22.3% | –
O=C(NC1CC(=O)N(c2ccccc2)C1)N1CCN(C(=O)c2ccco2)CC1 (configuration not stated) | 13 µM [falling, partial curve] | -28.1% | –

Additional structures

SMILES | AC50 [1] | cell number change | AC50 [2]
Cc1ccc(Nc2nc3ccccc3s2)cc1 | 29.1 µM [falling, single point] | -40.5% | 7.31 µM [falling, partial curve]
CCCCn1c(N)c(N(CCOC)C(=O)CSc2n[nH]c(-c3ccc(C)cc3)n2)c(=O)[nH]c1=O | – | 25% | 6.51 µM [rising, partial curve, poor fit]
CC(C)C(=O)Nc1cccc(C(=O)N2CCCCC2C)c1 (configuration not stated) | – | 19.9% | –
CCOC(=O)N1CCN(Cc2nc3cc(NC(=O)CC)ccc3n2C)CC1 | – | 18.2% | –
CCc1ccc(S(=O)(=O)Nc2cccc(-c3ccc4nnc(C)n4n3)c2)s1 | – | -19% | –
CC(C)OC(=O)CSc1nc2cccnc2n1C1CCCCC1 | 0.092 µM [rising, full curve, poor fit] | -6.72% | –
COc1cc(/C=C/C(=O)O)cc(S(=O)(=O)Nc2cc(Cl)c(Cl)cc2Cl)c1OC | – | 11.5% | –
Nc1nc(N)c(N=Nc2ccc(SCC(=O)O)cc2)c(=O)[nH]1 | 29.1 µM [falling, single point] | -53% | 29.1 µM [falling, single point]
CCCCN(C(=O)NC(=O)Nc1cc(C)ccc1C)S(C)(=O)=O | – | -15.7% | –
NNC(=O)c1cc(-c2ccccc2)sc1N | 2.06 µM [rising, full curve, poor fit] | 16.4% | –
Fc1ccc(Nc2nc(N3CCOCC3)nc(N3CCOCC3)n2)cc1 | 18.4 µM [rising, single point] | -14.2% | –
NS(=O)(=O)c1ccc(NC(=O)c2ccccc2Cl)cc1 | 18.4 µM [falling, single point] | -34.4% | 4.61 µM [falling, full curve, poor fit]
O=C(C(Cc1ccccc1)NS(=O)(=O)c1cccc2cccnc12)N1CCc2ccccc21 (configuration not stated) | – | 7.13% | –
COC(=O)c1ccc(NC(=O)CSC2=Nc3ccccc3C3CC=NN23)cc1 (configuration not stated) | 3.26 µM [rising, partial curve] | 1.61% | 0.461 µM [rising, partial curve, poor fit]
CCN(CC)CCCNC(=O)C1CCN(C(=O)c2oc3cc4sc(N(C)C)nc4cc3c2C)CC1 | 3.66 µM [rising, partial curve] | 5.61% | –
COc1ccc(NC(=O)c2cnc(C)cn2)cc1-n1cnnn1 | 4.11 µM [rising, full curve] | 2.7% | –
O=C(COC(=O)c1ccc(Cl)nc1)Nc1ccccc1OC(F)F | 0.206 µM [falling, single point] | 83.3% | 29.1 µM [rising, partial curve, poor fit]
COc1ccc(CSc2ccc(S(=O)(=O)N3CCCCC3)cn2)cc1F | 0.0517 µM [rising, full curve] | -8.9% | –
COc1ccc2[nH]cc(S(=O)(=O)c3ccc(F)cc3)c(=O)c2c1 | 13 µM [falling, partial curve] | -29.3% | –
C[N+](C)(C)CCOC(N)=O | 1.46 µM [falling, full curve] | -33.1% | 1.46 µM [falling, full curve]

SMILES | AC50 [1] | cell number change | AC50 [2]
CCOc1ccccc1N(C)S(=O)(=O)c1ccc2c(c1)CC(C)N2C(=O)C1CC1 (configuration not stated) | 6.51 µM [falling, single point] | -33.4% | 7.31 µM [falling, partial curve]
COc1ccc(C(=O)CSc2nnc(-c3ccccc3)o2)cc1 | – | -0.68% | –
C/C(=C\C(=O)c1sccc1Cl)N(C)C | – | -13.5% | –
CN(C(=O)c1cccc(C(F)(F)F)c1)C1CCCc2ccccc21 (configuration not stated) | 6.51 µM [rising, single point] | 13.5% | –
Cc1ccc(Cl)cc1N1CCN(Cc2nnnn2Cc2ccco2)CC1 | 0.116 µM [falling, full curve, poor fit] | 5.28% | –
CS(=O)(=O)Nc1cccc(-c2cn3ccccc3n2)c1 | 25.9 µM [rising, partial curve, poor fit] | 29.1% | 0.291 µM [rising, full curve, poor fit]
O=[N+]([O-])c1ccc(CCNc2cccc3ccccc23)c([N+](=O)[O-])c1 | – | -32% | 9.2 µM [falling, single point]
Cc1ccc(NC(=O)CSc2nc3ncc(Cl)cc3[nH]2)c(C)c1 | – | 20.8% | –
CC(=O)c1cccc(NC(=O)C2CC(=O)N(c3ccc4c(c3)OCCO4)C2)c1 (configuration not stated) | 0.206 µM [falling, full curve] | – | –
CCc1cccc(CC)c1NC(=O)C[n+]1cccc(C(N)=O)c1 | 0.00461 µM [falling, full curve, poor fit] | -4.87% | 0.0103 µM [falling, full curve, poor fit]
CCOC(=O)CSc1nnnn1-c1cc(OC)ccc1OC | – | -0.0844% | –
CCOc1ccc(-n2c(O)c(/C=N/c3ccnn3Cc3ccncc3)c3ccccc3c2=O)cc1 | 0.731 µM [falling, full curve] | 2.54% | 0.58 µM [falling, full curve]
CC(=O)c1ccc(NC(=O)/C(=C\c2ccco2)NC(=O)c2ccco2)cc1 | – | 37.3% | 23.1 µM [rising, single point]
Cc1cccc(/N=C/c2c(O)c3ccccc3oc2=O)n1 | 3.26 µM [falling, single point] | -19.4% | –
CCc1sc(C(C2C(=O)CC(C)(C)CC2=O)C2C(=O)CC(C)(C)CC2=O)cc1[N+](=O)[O-] | 25.9 µM [falling, single point] | -42.9% | 25.9 µM [falling, single point]
NNc1nc(-c2ccccc2)cs1 | – | – | 0.103 µM [rising, single point]
Cc1onc(-c2ccccc2)c1C(=O)Nc1ccon1 | 16.4 µM [falling, partial curve] | 4.42% | 0.731 µM [falling, full curve, poor fit]
CN(CCNC(=O)c1cccc(N2CCCC2=O)c1)Cc1ccccc1 | 6.51 µM [falling, partial curve, poor fit] | 8.5% | –
CCOCCCN(C)C1CCN(C(=O)c2oc3ccccc3c2NC(=O)c2cccc([N+](=O)[O-])c2)CC1 | – | 31.6% | 1.64 µM [rising, full curve]
CC(C)C(=O)Nc1nnc(CCN2CCOCC2)s1 | 0.231 µM [rising, full curve, poor fit] | -12.3% | –
